{"source": "PubChem BioAssay AID1259254, NCATS | 2017", "screen": "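Finding genes that stop cells copying their DNA twice in one cycle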 (primary screen)", "cells": "human HCT116 colorectal cancer cells", "reagents": "single siRNA against human genes", "timing": "3 days", "read-out": "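Imaged Hoechst DNA stain sorts each cell into a cycle phase by DNA amount; per plate, G2 fraction set to 0% for non-targeting and 100% for GMNN siRNA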", "reading the numbers": "G2 robust z-score: higher = more G2 cells, more excess DNA replication", "hit rule": "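Active siRNAs have a G2 robust z of 5 or more median absolute deviations over the median, which in these data means about 38% or higher of GMNN control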", "note": "In all, the deposit lists about 59,000 reagents; below is a random part of them. About 1,550 of them (2.6%) were called active. 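G2 share is only a proxy for re-replication; each gene was hit by three separate siRNAs, and active genes were retested.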 Unmarked entries are inactive. Further read-outs or replicates are left out here. The record does not give: the amount of reagent."}
{"gene": "H4C13 (H4 clustered histone 13)", "PubChem SID": "SID160719917", "G2 robust z-score": -0.169}
{"gene": "H4C13 (H4 clustered histone 13)", "PubChem SID": "SID160719918", "G2 robust z-score": 2.88}
{"gene": "H4C13 (H4 clustered histone 13)", "PubChem SID": "SID160735051", "G2 robust z-score": 0.842}
{"gene": "LINC00598 (long independently transcribed non-coding RNA 598)", "PubChem SID": "SID160734016", "G2 robust z-score": -0.959}
{"gene": "LINC00598 (long independently transcribed non-coding RNA 598)", "PubChem SID": "SID160734017", "G2 robust z-score": 0.755}
{"gene": "LINC00598 (long independently transcribed non-coding RNA 598)", "PubChem SID": "SID160770088", "G2 robust z-score": -0.176}

Sorted by “G2 robust z-score” (descending): some entries from above
{"gene": "LINC00598 (long independently transcribed non-coding RNA 598)", "PubChem SID": "SID160734017", "G2 robust z-score": 0.755}
{"gene": "LINC00598 (long independently transcribed non-coding RNA 598)", "PubChem SID": "SID160734016", "G2 robust z-score": -0.959}

The list goes on.
{"gene": "AWAT1 (acyl-CoA wax alcohol acyltransferase 1)", "PubChem SID": "SID160759699", "G2 robust z-score": -0.367}
{"gene": "AWAT1 (acyl-CoA wax alcohol acyltransferase 1)", "PubChem SID": "SID160759700", "G2 robust z-score": 0.286}
{"gene": "AWAT1 (acyl-CoA wax alcohol acyltransferase 1)", "PubChem SID": "SID160759701", "G2 robust z-score": 1.56}
{"gene": "TERF1P2 (TERF1 pseudogene 2)", "PubChem SID": "SID160769840", "G2 robust z-score": 0.0679}
{"gene": "TERF1P2 (TERF1 pseudogene 2)", "PubChem SID": "SID160769841", "G2 robust z-score": 0.125}
{"gene": "TERF1P2 (TERF1 pseudogene 2)", "PubChem SID": "SID160769843", "G2 robust z-score": -0.988}
